{"source": "patent US5958954", "tested_on": "RAR-alpha/RXR-alpha heterodimer", "assay": "EMSA", "settings": "retarded species only with RAR/RXR combination; not diminished by 10^-6 M AGN 193109; protein translated in vitro; label: end-labeled", "note": "Construct, isoform or probe ends are uncertain for at least one entry."}
{"sequence": "TCAGGTCACCAGGAGGTCAGA (double strand) [DR-5 RARE probe]", "values": [{"measurement": "binding result", "result": "binds"}]}
